Data source: PubChem BioAssay AID1259405 (NCATS, 2018)

- Aim: 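Knock-downs that lift recombinant protein yield in hamster ovary cells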 (primary screen)
- Cell system: Chinese hamster CHO-K1 ovary cells with stable secreted eGFP expression
- Reagent: single siRNA against mouse genes, 0.8 pmol siRNA per well (2 µl of 400 nM stock)
- Timing: 3 days
- Measured: 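Per-well intracellular GFP measured by laser scanning cytometry, plus viability from ATP luminescence, each relative to plate median of non-targeting control wells, in %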
- Scale: GFP, % of control: higher = more GFP per well, higher productivity; viability (ATP), % of control: higher = more viable cells (more ATP)
- Active means: 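a knock-down is called active if GFP reaches 120% or more of non-targeting control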
Shown is one part, drawn at random, of about 50,000 reagents tested. Over the whole deposit, about 4,000 (8%) got an active call. 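Mouse siRNA library applied to hamster cells; one well for each siRNA.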 The numbers tell different reagents against one gene apart. Reagent sequences are not shown.

Ccdc25 (coiled-coil domain containing 25) #1: GFP, % of control = 142; viability (ATP), % of control = 104; call = active
Ccdc25 (coiled-coil domain containing 25) #2: GFP, % of control = 48.2; viability (ATP), % of control = 48.7; call = inactive
Ccdc25 (coiled-coil domain containing 25) #3: GFP, % of control = 102; viability (ATP), % of control = 95.3; call = inactive
Cdip1 (cell death inducing Trp53 target 1) #1: GFP, % of control = 76; viability (ATP), % of control = 49.2; call = inactive
Cdip1 (cell death inducing Trp53 target 1) #2: GFP, % of control = 80.5; viability (ATP), % of control = 76.8; call = inactive
Cdip1 (cell death inducing Trp53 target 1) #3: GFP, % of control = 114; viability (ATP), % of control = 103; call = inactive
1700067K01Rik (RIKEN cDNA 1700067K01 gene) #1: GFP, % of control = 75.7; viability (ATP), % of control = 23.8; call = inactive
1700067K01Rik (RIKEN cDNA 1700067K01 gene) #2: GFP, % of control = 95.4; viability (ATP), % of control = 83.1; call = inactive
1700067K01Rik (RIKEN cDNA 1700067K01 gene) #3: GFP, % of control = 76.8; viability (ATP), % of control = 76.9; call = inactive
Mmaa (methylmalonic aciduria (cobalamin deficiency) type A) #1: GFP, % of control = 74.7; viability (ATP), % of control = 100; call = inactive
Mmaa (methylmalonic aciduria (cobalamin deficiency) type A) #2: GFP, % of control = 78.7; viability (ATP), % of control = 59.7; call = inactive
Ccl19 (C-C motif chemokine ligand 19) #1: GFP, % of control = 131; viability (ATP), % of control = 118; call = active
Ccl19 (C-C motif chemokine ligand 19) #2: GFP, % of control = 71.4; viability (ATP), % of control = 86.1; call = inactive
Mtf1 (metal response element binding transcription factor 1) #1: GFP, % of control = 60.6; viability (ATP), % of control = 64.1; call = inactive
Mtf1 (metal response element binding transcription factor 1) #2: GFP, % of control = 65; viability (ATP), % of control = 45.9; call = inactive
Mtf1 (metal response element binding transcription factor 1) #3: GFP, % of control = 76.9; viability (ATP), % of control = 120; call = inactive
Fgl2 (fibrinogen-like protein 2) #1: GFP, % of control = 87; viability (ATP), % of control = 76.7; call = inactive
Fgl2 (fibrinogen-like protein 2) #2: GFP, % of control = 160; viability (ATP), % of control = 93.6; call = active
Fgl2 (fibrinogen-like protein 2) #3: GFP, % of control = 106; viability (ATP), % of control = 129; call = inactive
Hdac9 (histone deacetylase 9) #1: GFP, % of control = 56.7; viability (ATP), % of control = 58.2; call = inactive
Hdac9 (histone deacetylase 9) #2: GFP, % of control = 59.7; viability (ATP), % of control = 65.6; call = inactive
Hdac9 (histone deacetylase 9) #3: GFP, % of control = 78.6; viability (ATP), % of control = 82.9; call = inactive
Bcas3 (BCAS3 microtubule associated cell migration factor) #1: GFP, % of control = 108; viability (ATP), % of control = 127; call = inactive
Bcas3 (BCAS3 microtubule associated cell migration factor) #2: GFP, % of control = 52.7; viability (ATP), % of control = 70.9; call = inactive
Bcas3 (BCAS3 microtubule associated cell migration factor) #3: GFP, % of control = 129; viability (ATP), % of control = 158; call = active
Mycbp2 (MYC binding protein 2, E3 ubiquitin protein ligase) #1: GFP, % of control = 93.6; viability (ATP), % of control = 85.7; call = inactive
Mycbp2 (MYC binding protein 2, E3 ubiquitin protein ligase) #2: GFP, % of control = 182; viability (ATP), % of control = 73.6; call = active
Mycbp2 (MYC binding protein 2, E3 ubiquitin protein ligase) #3: GFP, % of control = 108; viability (ATP), % of control = 143; call = inactive
Tmem205 (transmembrane protein 205) #1: GFP, % of control = 105; viability (ATP), % of control = 58.4; call = inactive
Tmem205 (transmembrane protein 205) #2: GFP, % of control = 78.2; viability (ATP), % of control = 109; call = inactive
Tmem205 (transmembrane protein 205) #3: GFP, % of control = 159; viability (ATP), % of control = 156; call = active
AI182371 (expressed sequence AI182371) #1: GFP, % of control = 61.7; viability (ATP), % of control = 43.3; call = inactive
AI182371 (expressed sequence AI182371) #2: GFP, % of control = 92.4; viability (ATP), % of control = 49.5; call = inactive
AI182371 (expressed sequence AI182371) #3: GFP, % of control = 42.4; viability (ATP), % of control = 31.1; call = inactive
Socs4 (suppressor of cytokine signaling 4) #1: GFP, % of control = 107; viability (ATP), % of control = 84.2; call = inactive
Socs4 (suppressor of cytokine signaling 4) #2: GFP, % of control = 88.3; viability (ATP), % of control = 69.4; call = inactive
Socs4 (suppressor of cytokine signaling 4) #3: GFP, % of control = 81.3; viability (ATP), % of control = 69.8; call = inactive
Klf12 (Kruppel-like transcription factor 12) #1: GFP, % of control = 64.4; viability (ATP), % of control = 72.1; call = inactive
Klf12 (Kruppel-like transcription factor 12) #2: GFP, % of control = 65.2; viability (ATP), % of control = 86.8; call = inactive
Klf12 (Kruppel-like transcription factor 12) #3: GFP, % of control = 79.4; viability (ATP), % of control = 87.5; call = inactive

4 entries from above, limited to “GFP, % of control”.
Socs4 (suppressor of cytokine signaling 4) #1	107
Socs4 (suppressor of cytokine signaling 4) #2	88.3
Socs4 (suppressor of cytokine signaling 4) #3	81.3
Klf12 (Kruppel-like transcription factor 12) #1	64.4
